This experiment concerns the target T1, Flag-NudCL2 (NudC-like protein 2) (human) (UniProt Q8WVJ2).
T1 sequence: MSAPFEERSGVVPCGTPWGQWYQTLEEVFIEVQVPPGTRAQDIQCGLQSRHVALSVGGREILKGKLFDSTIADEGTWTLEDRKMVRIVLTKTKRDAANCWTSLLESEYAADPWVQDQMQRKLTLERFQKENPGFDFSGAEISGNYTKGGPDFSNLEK
Description: affinity purification with mass spectrometry; HeLa cells transfected with Flag-NudCL2; immunoprecipitation with anti-FLAG antibody-coupled beads; trypsin digestion, LC-MS/MS.

Sequences of proteins named here, by UniProt entry; tags and fusion partners are left off.
UniProt P35579: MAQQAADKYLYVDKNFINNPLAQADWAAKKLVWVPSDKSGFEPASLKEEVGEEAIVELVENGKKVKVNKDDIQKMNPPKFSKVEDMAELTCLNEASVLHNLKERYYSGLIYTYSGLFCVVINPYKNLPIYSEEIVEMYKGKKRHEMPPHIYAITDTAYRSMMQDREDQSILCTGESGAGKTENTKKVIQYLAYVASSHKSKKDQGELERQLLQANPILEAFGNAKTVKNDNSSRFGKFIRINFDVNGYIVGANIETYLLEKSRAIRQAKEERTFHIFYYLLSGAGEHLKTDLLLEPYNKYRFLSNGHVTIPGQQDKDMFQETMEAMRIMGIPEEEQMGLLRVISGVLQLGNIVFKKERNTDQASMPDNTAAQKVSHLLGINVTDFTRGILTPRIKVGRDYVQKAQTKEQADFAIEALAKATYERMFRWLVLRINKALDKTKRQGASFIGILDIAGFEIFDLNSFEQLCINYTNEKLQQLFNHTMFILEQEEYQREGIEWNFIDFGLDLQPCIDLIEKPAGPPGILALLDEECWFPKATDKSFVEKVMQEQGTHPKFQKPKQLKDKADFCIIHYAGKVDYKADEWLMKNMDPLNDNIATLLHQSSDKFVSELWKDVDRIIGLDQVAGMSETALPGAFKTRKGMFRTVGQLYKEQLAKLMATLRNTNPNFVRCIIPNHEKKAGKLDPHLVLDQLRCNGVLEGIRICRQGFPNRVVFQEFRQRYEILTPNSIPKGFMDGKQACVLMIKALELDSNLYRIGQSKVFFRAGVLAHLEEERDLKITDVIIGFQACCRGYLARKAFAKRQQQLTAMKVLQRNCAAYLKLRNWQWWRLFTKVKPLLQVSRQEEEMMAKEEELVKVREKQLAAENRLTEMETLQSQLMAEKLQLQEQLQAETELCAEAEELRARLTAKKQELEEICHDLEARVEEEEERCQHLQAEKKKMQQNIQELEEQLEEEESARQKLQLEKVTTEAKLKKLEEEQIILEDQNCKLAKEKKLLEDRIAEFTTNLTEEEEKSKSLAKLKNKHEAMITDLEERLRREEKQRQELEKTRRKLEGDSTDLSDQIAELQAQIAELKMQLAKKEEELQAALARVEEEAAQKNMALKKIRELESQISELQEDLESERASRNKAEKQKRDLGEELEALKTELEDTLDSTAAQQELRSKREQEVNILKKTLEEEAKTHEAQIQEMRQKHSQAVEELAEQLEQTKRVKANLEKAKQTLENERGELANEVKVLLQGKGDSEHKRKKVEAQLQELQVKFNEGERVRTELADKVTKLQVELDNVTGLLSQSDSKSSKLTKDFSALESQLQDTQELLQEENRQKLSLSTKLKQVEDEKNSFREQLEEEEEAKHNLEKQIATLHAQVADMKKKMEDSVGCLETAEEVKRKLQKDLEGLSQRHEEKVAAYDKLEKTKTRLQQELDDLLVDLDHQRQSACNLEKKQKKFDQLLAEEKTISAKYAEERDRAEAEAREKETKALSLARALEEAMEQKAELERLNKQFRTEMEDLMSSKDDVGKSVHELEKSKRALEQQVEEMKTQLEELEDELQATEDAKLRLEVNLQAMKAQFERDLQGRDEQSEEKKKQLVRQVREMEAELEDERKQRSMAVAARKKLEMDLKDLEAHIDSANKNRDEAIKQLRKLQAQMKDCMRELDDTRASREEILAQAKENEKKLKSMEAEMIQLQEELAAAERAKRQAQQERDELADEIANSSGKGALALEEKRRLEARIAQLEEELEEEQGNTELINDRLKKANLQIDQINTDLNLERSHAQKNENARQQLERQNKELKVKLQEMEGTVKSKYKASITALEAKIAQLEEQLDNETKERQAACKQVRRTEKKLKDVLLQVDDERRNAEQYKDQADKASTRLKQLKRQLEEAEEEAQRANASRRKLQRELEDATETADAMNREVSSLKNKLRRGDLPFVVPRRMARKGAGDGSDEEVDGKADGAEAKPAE

These are yes or no findings as the source states them, for the method shown. In cells and extracts the contact can be indirect. A yes stands for co-enrichment or nearness to the bait. Other partners may have been found. Where a sequence is shown, tags or fusion partners need not be part of it.

As to “myosin-9 (endogenous, HeLa) (from UniProt P35579 1-1960)”, the binding entry was “binds”.

These data come from publication PMC7360774.
